For at least one compound, name, drawing or mass did not settle the structure.
Key:
[1] = tested on: eNOS Ser1179 phosphorylation; experiment: Western blot of eNOS phosphorylation in BAEC; format: cell-based, bovine; details: wortmannin 100 nM, 30 minutes; to below the basal level
Protocol: (§1) Bovine aortic endothelial cells (BAEC) were isolated by scraping the luminal side of a calf aorta with a cover glass and transferring the harvested material to a 100 mm cell culture dish. The primary culture and subcultures were grown in Dulbecco's modified Eagle medium (DMEM) with 5.5 mM glucose, 10% (v/v) horse serum, 25 mM HEPES, 100 U/ml penicillin, and 100 μg/ml streptomycin in collagen I-coated dishes (BioCoat, BD BioSciences). Purity of the cultures was validated by the presence of typical “cobblestone” morphology during phase-contrast microscopy (16) and by the ability of cells to take up acetylated LDL (DiI AcLDL, Molecular Probes, Eugene, Oreg.). Cultures used for experiments were plated in 6-well plates (9.5 cm^2 wells), except for PKC translocation assays (see below). […]
(§2) Cultures were washed twice with ice-cold PBS and lysed in a buffer containing Tris (20 mM, pH 7.5), Triton X-100 (1% v/v), sodium pyrophosphate (2.5 mM); NaF (10 mM), NaCl (140 mM), EDTA (1 mM), EGTA (1 mM), β-glycerophosphate (1 mM), Na3VO4 (1 mM), leupeptin (1 μg/ml=2 μM), aprotinin (1 μg/ml=[…]), and phenylmethylsulfonylfluoride (1 mM). Protein concentration was measured by the Bradford method and samples reduced in modified Laemmli buffer (Invitrogen) and heated at 70° C. for 10 minutes. […]

[2] = tested on: Akt Ser473 phosphorylation; experiment: Western blot of Akt phosphorylation in BAEC; format: cell-based, bovine; details: wortmannin 100 nM, 30 minutes pre-incubation; unstimulated and after insulin or VEGF
Protocol: as §1, §2

## COC[C@H]1OC(=O)c2coc3c2[C@@]1(C)C1=C(C3=O)[C@@H]2CCC(=O)[C@@]2(C)C[C@H]1OC(C)=O [wortmannin]
[1]
  insulin-stimulated eNOS phosphorylation: completely inhibited
[2]
  Akt Ser473 phosphorylation: decreased to barely detectable levels
